For this assay, the target named is FLAG-tagged FcγRIIB (human) (UniProt P31994). Description: co-IP.

Chains of the proteins cited; added tags and fusions are not shown. Residues count along the entry.
UniProt P31994, residues 43-310: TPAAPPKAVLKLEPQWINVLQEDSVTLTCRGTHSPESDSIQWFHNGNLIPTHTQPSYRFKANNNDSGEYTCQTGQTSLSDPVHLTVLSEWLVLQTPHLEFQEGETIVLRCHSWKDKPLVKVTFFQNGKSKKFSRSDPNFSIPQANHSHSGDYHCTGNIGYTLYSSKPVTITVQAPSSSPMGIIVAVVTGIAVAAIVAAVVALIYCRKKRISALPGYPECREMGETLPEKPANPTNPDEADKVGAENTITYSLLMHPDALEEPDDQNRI
UniProt Q9NNX6: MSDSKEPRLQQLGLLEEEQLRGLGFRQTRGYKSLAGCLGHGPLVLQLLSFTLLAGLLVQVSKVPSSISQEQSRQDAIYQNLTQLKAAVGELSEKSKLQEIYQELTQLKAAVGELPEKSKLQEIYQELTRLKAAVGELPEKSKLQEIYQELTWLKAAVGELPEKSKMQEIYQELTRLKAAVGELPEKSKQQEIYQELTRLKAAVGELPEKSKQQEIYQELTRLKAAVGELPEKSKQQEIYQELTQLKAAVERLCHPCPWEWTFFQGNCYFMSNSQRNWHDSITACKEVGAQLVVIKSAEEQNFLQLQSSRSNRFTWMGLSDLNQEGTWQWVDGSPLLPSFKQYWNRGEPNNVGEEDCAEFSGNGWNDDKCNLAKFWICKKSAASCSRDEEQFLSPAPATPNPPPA

These are yes or no findings as the source states them, for the method shown. In cells and extracts the contact can be indirect. Some binding calls cover weakened binding; strength is not graded here.

For the substance “HA-tagged DC-SIGN (from UniProt Q9NNX6 1-404) (receptor)”, the binding result is recorded as “binds”.

Source of the values: article doi:10.1101/2024.12.16.628704.
